These are yes or no findings as the source states them, for the method shown. A result given as binding can be weak or reduced; the word gives no strength.

The assay deals with monkey CD40 protein (plate coat of the ELISA of Fig. 5) (cynomolgus monkey per paragraph 23; rhesus monkey per paragraph 173). The experiment in a line: ELISA on monkey CD40 protein coated on the plate, anti-human IgG-HRP, A450. (In an ELISA, binding on a coated surface is turned into a signal by an enzyme label.)

B1: LYV378 (chimeric antibody, 9F12D9 in human IgG4SP / human kappa) (antibody, V domains shown)
VH: EVHLVESGGGLVQPGRSLKLSCAASGFTFTNYGLHWIRQAPTKGLEWVASISPSGGVTYYRDSVKGRFTISRDNGKTTLHLQMDSLRSEDTATYYCALPFLGWGGANWIAHWGQGTLVTVSS
VL: DIQMTQSPASLSASLGETVSIECLASEDISNDLAWYQQKSGKSPQLLIYFVDRLLDGVPSRFSGSGSGTRHSLKISGMQPEDEADYFCQQSYKYPPTFGGGTKLELKR
For the molecule B1, the binding entry is listed as “binds”.

B2: LYV376 (chimeric antibody, 19G6D6 in human IgG4SP / human kappa) (antibody, V domains shown)
VH: EVQLQQSGPELVKPGASVKIPCKASGYTFTDYNMDWVKQSHGKSLEWIGDINPNNDISIYNQKFRGKATLTVDKSSSTAYMELRSLTSEDTAVYYCARRFAYWGQGTLVTVSA
VL: EIVLTQSPTTMAASPGEKITITCSASSSISSNYLHWYQQKPGSSPKVLIYRTSNLASGVPVRFSGSGSGTSYSLTIGTMEAEDVATYYCQQGSSIPYTFGGGTKLEIKR
Take B2: the binding result is reported as “binds”.

B3: LYV377 (chimeric antibody, 13F1A7 in human IgG4SP / human kappa) (antibody, V domains shown)
VH: EVQILETGGGLVKPGGSLRLSCATSGFNFNDSFMNWVRQAPGKGLEWVAQIRNKNYNYATYYTESLEGRVTISRDDSKSRVYLQVSSLRAEDSAVYYCTSYYYDGFADYFDYWGQGVMVTVSS
VL: DIKMTQSPSFLSASVGDSVTFTCKASQNIYIYLNWYQQKFGEAPKLLIYNTNNLQTGIPSRFSGSESGTVFTLTISSLQPEDVATYFCLQHSSRRTFGGGTKLELKR
As to B3, the binding result is listed as “binds”.

B4: LYV379 (chimeric antibody, 17C5C2 in human IgG4SP / human kappa) (antibody, V domains shown)
VH: EVHILETGGGLVKPGGSLGLSCTTSGFNFNDYFMNWVRQAPGKGLEWVAQIRNGNYDYAAYYAESLEGRVTISRDDSKSSVNLQVSSLRAEDTAIYYCTSYYYDGHFDYFDNWGHGVMVTVSS
VL: DIKVTQSPSFLSASVGDRATINCKASQNLNKYLNWYQQKPGEPPKLLIYNTDNLYTGIPSRFSGSGSVADFTLTISGLQPEDVATYFCMQHNVRRTFGGGTKLELKR
Regarding B4, the binding entry was “binds”.

Source of the values: patent US20210179727A1.
